Here are results for 3 compounds from patent publication US20060241172A1, “Benzodioxane and benzodioxolane derivatives and uses thereof” (Wyeth, priority 2005, published 2006).

Protein sequences, listed by entry. Tags and fused reporters are not part of them. Residues count along the entry.
UniProt P28335, 33-458 limits assumed: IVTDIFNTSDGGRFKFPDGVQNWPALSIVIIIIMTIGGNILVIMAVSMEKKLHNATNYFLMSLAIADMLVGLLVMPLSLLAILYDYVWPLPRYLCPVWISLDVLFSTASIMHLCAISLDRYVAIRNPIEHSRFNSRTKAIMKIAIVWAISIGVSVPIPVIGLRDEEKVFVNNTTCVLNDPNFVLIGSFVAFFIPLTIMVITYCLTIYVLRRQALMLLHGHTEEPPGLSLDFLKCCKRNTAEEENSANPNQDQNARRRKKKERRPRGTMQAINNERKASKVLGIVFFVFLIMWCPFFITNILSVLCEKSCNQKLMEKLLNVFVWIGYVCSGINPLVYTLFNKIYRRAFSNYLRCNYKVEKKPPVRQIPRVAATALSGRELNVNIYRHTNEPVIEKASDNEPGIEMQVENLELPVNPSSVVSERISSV

The match of structure and compound is tentative.

In assay [1] the target is human 5-hydroxytryptamine-2C (h5-HT2C) receptor (Homo sapiens, UniProt P28335). Kind of assay: 5-HT2C binding: [125I]DOI displacement in membranes of transfected CHO cells. Particulars: read-out: 5-HT2C Binding Ki avg; tested form: fumarate.
The target in the next assay is human 5-HT2C receptor (Homo sapiens, UniProt P28335). Description: 5-HT2C receptor-stimulated calcium mobilization (FLIPR) in CHO cells. The format is cell-based. As to conditions: tested form: fumarate; for 5-HT2C Function EMax (%): percentage of the response to a maximally effective concentration of 5-HT; for EC50: read-out: 5-HT2C Function EC50.

In the case of `CCNCC1COc2cccc(-c3ccccc3Cl)c2O1` (centres unmarked), the Ki (in general, a dissociation constant, usually derived from enzyme kinetics or from competition with a known ligand) in assay [1] was 50 to 200 nM. In addition, at human 5-HT2C receptor, the “5-HT2C Function EMax (%)” value is given as 30% and the EC50 – broadly, the concentration giving half of the maximal effect – was 100 to 500 nM.
On to `CCCNCC1COc2cccc(-c3ccccc3Cl)c2O1` (centres unmarked), for which the Ki in assay [1] was 50 to 200 nM. In addition, on human 5-HT2C receptor, the “5-HT2C Function EMax (%)” value stood at 20% and the EC50 is above 500 nM.
As for `CNCC1COc2cccc(-c3ccc(Cl)cc3Cl)c2O1` (centres unmarked), at human 5-HT2C receptor, the “5-HT2C Function EMax (%)” value is 40% and the EC50 lay in the range of 100 to 500 nM.
